Measurements as given in PubChem BioAssay AID2685 (National Center for Advancing Translational Sciences (NCATS), 2010).
The list shows a part of the results. Further columns of the screen follow, without active or inactive calls. Most of these compounds were active or inconclusive in the main read-out, so they are no random draw. The note in brackets gives the kind of curve behind each potency; many fits are weak.

Test: qHTS Assay for Lipid Storage Modulators in Drosophila S3 Cells;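 on cell number change: cells counted by Cell Tracker Red CMTPX staining in the red channel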
Conditions: BODIPY lipid droplet fluorescence, 18-24 h; for cell number change: measured here: cell count max response, cells fed with added oleic acid
Outline: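 Laser-scanning cytometry quantifies lipid droplet accumulation (500–530 nm total intensity; droplet/cell object ratio) in oleic acid-fed (400 uM added) Drosophila S3 cells treated with a concentration series. 20 uM Triacsin C defined 100% inhibition.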

[1] = measured here: lipid fluorescence (Fed channel) AC50, cells fed with added oleic acid
[2] = measured here: cell number channel AC50, cells fed with added oleic acid

With `O=C(Nc1ccc(F)cc1)c1ccccc1NS(=O)(=O)N1CCCC1` the cell number change was -11.1% and the AC50 [1] was 0.13 µM [rising, full curve, poor fit].
In the case of `COc1ccc(-c2cc(C(=O)N3CC(C)CC(C)C3)c3ccccc3n2)cc1` (centres undefined), the cell number change is reported as -25% and the AC50 [2] is reported as 0.116 µM [falling, full curve, poor fit].
With `Cn1c(=O)c2c(nc(CN3CCN(C(=O)c4ccco4)CC3)n2CCc2ccccc2)n(C)c1=O` the cell number change was 19.1% and the AC50 [2] was 0.517 µM [rising, full curve, poor fit].
With `C=CCc1cccc(/C=N/c2nc3ccccc3n2CC)c1O` the cell number change was 22.5% and the AC50 [1] was 32.6 µM [rising, single point].
For `Cc1ccc2c(c1)N(C(=O)CCC(=O)N1CCN(c3ccccn3)CC1)CC(C)O2` (centres undefined), the cell number change was 16.7% and the AC50 [1] was 18.4 µM [falling, single point].
For `CCOc1ncccc1C(=O)Nc1nnc(C)s1`, the cell number change was 15.6%.
In the case of `COc1ccc(C(=O)NCC2(c3ccc(OC)c(OC)c3)CCCC2)c(OC)c1`, the cell number change is reported as 3.85% and the AC50 [1] is reported as 0.58 µM [falling, single point].
In the case of `O=C(NC(=S)Nc1ccccc1N1CCOCC1)c1cccc([N+](=O)[O-])c1`, the cell number change is reported as -41.8%, the AC50 [2] is reported as 29.1 µM [falling, single point] and the AC50 [1] is reported as 9.2 µM [falling, partial curve].
In the case of `CCn1cc(C2=NC(C)(C)CO2)c2ccccc21`, the cell number change is reported as 24.9% and the AC50 [1] is reported as 14.6 µM [falling, partial curve].
In the case of `Cn1cccc1C(=O)NCCc1ccc(Cl)cc1`, the cell number change is reported as 21.1% and the AC50 [1] is reported as 29.1 µM [rising, single point].
For `O=C(c1cc(-c2ccccc2)on1)N1CCc2ccccc2C1`, the cell number change was 15.8% and the AC50 [1] was 7.31 µM [rising, single point].
`COc1ccc(OCC(=O)Nc2ccc(Cl)cc2)cc1` showed a cell number change of 14%.
For `CCOC(=O)C(NC(=O)NCc1ccc(F)cc1)(OCC)C(F)(F)F` (centres undefined), the cell number change was 74.4% and the AC50 [1] was 20.6 µM [rising, partial curve].
For `c1ccc(Cn2c[n+](Cc3ccccc3)c3ccccc32)cc1`, the cell number change was -1.13% and the AC50 [1] was 29.1 µM [falling, single point].
In the case of `CC(=O)Nc1ccc(S(=O)(=O)NCC(=O)OCC(=O)c2cc(C)n(-c3ccc4c(c3)OCO4)c2C)cc1`, the AC50 [1] is reported as 18.4 µM [rising, single point].
With `Cc1ccc(-c2csc3ncnc(N4CCN(Cc5ccccc5)CC4)c23)cc1` the cell number change was -2.1% and the AC50 [1] was 32.6 µM [rising, single point].
In the case of `O=S(=O)(c1c(F)cccc1F)N1CCN(C(=S)NCc2ccc3c(c2)OCO3)CC1`, the AC50 [2] is reported as 0.731 µM [rising, single point].
With `Cc1c(C)c2ccc(OCC(=O)Nc3nccs3)cc2oc1=O` the cell number change was -8.58% and the AC50 [1] was 9.2 µM [falling, partial curve].
In the case of `O=C(CN1C(=O)COc2ccccc21)NCCC1=CCCCC1`, the AC50 [1] is reported as 2.31 µM [rising, single point].
In the case of `Nc1ccc2c(c1)COC2=O`, the cell number change is reported as -4.55% and the AC50 [1] is reported as 29.1 µM [falling, partial curve, poor fit].
With `Cc1ccc(-c2nc(NC(=O)CSc3ncn[nH]3)ns2)cc1` the cell number change was 13.2% and the AC50 [1] was 0.259 µM [falling, full curve, poor fit].
With `Cc1ccc(NC(=O)COc2ncnc3c(Cl)cc(Cl)cc23)cc1[N+](=O)[O-]` the cell number change was -12.8% and the AC50 [1] was 0.13 µM [falling, full curve, poor fit].
For `COc1ccccc1N1CCN(C(=O)C2=CC=CN3CCS(=O)(=O)N=C23)CC1`, the cell number change was -6.49%, the AC50 [2] was 0.731 µM [falling, single point] and the AC50 [1] was 23.1 µM [rising, partial curve].
In the case of `CCOCc1cn(CC(=O)c2ccc([N+](=O)[O-])cc2)c(C)nc1=N`, the cell number change is reported as 25.9%.
In the case of `O=C(CCSCCC(=O)NCc1ccccc1)NCc1ccccc1`, the cell number change is reported as -52.4%, the AC50 [2] is reported as 7.31 µM [falling, partial curve] and the AC50 [1] is reported as 0.651 µM [falling, partial curve, poor fit].
For `O=C(COC(=O)CCc1c[nH]c2ccccc12)NCCc1ccccc1`, the cell number change was 56.2% and the AC50 [2] was 3.66 µM [falling, single point].
For `CC(=O)c1cccc(NC(=O)COC(=O)c2ccc3c(c2)OCO3)c1`, the cell number change was -27% and the AC50 [1] was 0.184 µM [falling, full curve].
In the case of `COc1ccc(C(=O)NCCCOC(=O)c2ccc(OC)cc2)cc1`, the cell number change is reported as 7.27% and the AC50 [1] is reported as 0.282 µM [rising, full curve, poor fit].
Work on `Cc1ccc(C)c(NC(=O)CN(C)C(=O)c2cccc(S(=O)(=O)N3CCCC3)c2)c1` yielded a cell number change of -9.29%.
With `O=C(c1ccc(Cl)cc1)c1coc2ccc(O)cc12` the cell number change was -50%, the AC50 [2] was 29.1 µM [falling, single point] and the AC50 [1] was 18.4 µM [falling, single point].
In the case of `S=C1CCC(c2ccc(Br)cc2)=NN1c1ccccc1`, the cell number change is reported as -11.2% and the AC50 [1] is reported as 0.731 µM [falling, full curve, poor fit].
In the case of `CCOC(=O)c1c(CSc2ccccc2)n(C)c2cc(Br)c(OC)c(O)c12`, the cell number change is reported as 15.3% and the AC50 [1] is reported as 7.31 µM [rising, partial curve, poor fit].
For `CC(OC(=O)CCN=C1NS(=O)(=O)c2ccccc21)C(=O)Nc1ccc(F)c(F)c1F` (centres undefined), the cell number change was -5.44% and the AC50 [1] was 4.11 µM [rising, partial curve].
For `COc1ccccc1OCC(=O)N/N=C/c1cccc2cccnc12`, the cell number change was -40.2%, the AC50 [2] was 0.13 µM [falling, partial curve, poor fit] and the AC50 [1] was 32.6 µM [falling, single point].
For `Cc1ccc(NC(=O)C2CCN(S(=O)(=O)c3c(C)nn(C)c3C)CC2)c(Cl)c1`, the cell number change was 36.1%, the AC50 [2] was 20.6 µM [rising, partial curve] and the AC50 [1] was 25.9 µM [rising, partial curve].
For `Cn1c(N)c(C(=O)CSc2nnc(-c3ccccc3F)n2C2CC2)c(=O)n(C)c1=O`, the AC50 [1] was 0.206 µM [rising, full curve, poor fit].
With `Cc1ccc(S(=O)(=O)N2CCCCC2)cc1NC(=O)COC(=O)c1ccc(=O)[nH]c1` the cell number change was -1.76% and the AC50 [1] was 5.17 µM [rising, full curve].
For `Cc1ccc(S(=O)(=O)NCC(=O)OCC(=O)NCc2ccc(F)cc2)cc1`, the cell number change was -29.4% and the AC50 [1] was 32.6 µM [falling, single point].
With `COc1ccc(Cn2c(C)nc3c(c(=O)c4ccccc4n3C)c2=O)cc1` the cell number change was -40.3%, the AC50 [2] was 3.66 µM [falling, full curve, poor fit] and the AC50 [1] was 4.61 µM [falling, full curve].
In the case of `COc1ccc(CCNC(=O)Nc2cccc([N+](=O)[O-])c2)cc1`, the cell number change is reported as -25.1% and the AC50 [2] is reported as 0.00411 µM [falling, full curve, poor fit].
For `CC(C)C(NS(=O)(=O)c1ccccc1)C(=O)NC1CCCC1` (centres undefined), the cell number change was -1.16% and the AC50 [1] was 1.64 µM [rising, single point].
In the case of `CCC(C(=O)N1CCN(C(=O)c2ccco2)CC1)n1sc2ccccc2c1=O` (centres undefined), the cell number change is reported as 6.57% and the AC50 [1] is reported as 6.51 µM [falling, single point].
`Cc1cc(C)n(-c2ccc(C(=O)OCc3nnc(-c4ccccc4)o3)cc2)n1` gave a cell number change of -4.01%.
In the case of `Cc1ccc(C(=O)NC(=O)CSc2nncn2C)cc1`, the cell number change is reported as 12.5%, the AC50 [2] is reported as 7.31 µM [rising, partial curve, poor fit] and the AC50 [1] is reported as 6.51 µM [rising, single point].
For `Cc1ccc(C(C2=C(O)CC(C)(C)CC2=O)C2C(=O)CC(C)(C)CC2=O)o1` (centres undefined), the cell number change was 17.9% and the AC50 [1] was 29.1 µM [rising, single point].
In the case of `O=C(c1ccc(Cl)cc1)c1cc([N+](=O)[O-])ccc1N1CCOCC1`, the cell number change is reported as -25.3% and the AC50 [1] is reported as 0.0082 µM [falling, full curve, poor fit].
With `COc1ccc(NC(=O)c2c(-c3c(Cl)cccc3Cl)noc2C)cn1` the cell number change was 20% and the AC50 [1] was 14.6 µM [rising, partial curve].
With `Cc1ccc(S(=O)(=O)N/N=C/c2c(F)cccc2Cl)cc1` the cell number change was -33.9%, the AC50 [2] was 0.82 µM [falling, full curve, poor fit] and the AC50 [1] was 6.51 µM [falling, single point].
For `CCOC(=O)c1cnc(-c2ccccc2)nc1-c1ccccc1`, the AC50 [2] was 0.0116 µM [rising, full curve] and the AC50 [1] was 0.651 µM [rising, full curve, poor fit].
In the case of `CCOc1ccc(OCC)c(NC(=O)CCCN2C(=O)c3cccnc3C2=O)c1`, the cell number change is reported as 20.5% and the AC50 [1] is reported as 0.259 µM [falling, full curve, poor fit].
For `COCCSc1ccccc1C(=O)NCC1CCCO1` (centres undefined), the cell number change was -12%, the AC50 [2] was 1.84 µM [falling, partial curve, poor fit] and the AC50 [1] was 2.06 µM [falling, partial curve].
Molecule `O=S(=O)(c1ccccc1)c1cnn(-c2ccccc2)c1-c1ccc(Cl)cc1` has a cell number change of -14.3%.
`O=C(O)CC(NC(=O)CC(c1ccccc1)c1ccccc1)c1cccc([N+](=O)[O-])c1` (centres undefined) gave a cell number change of -7.8%.
In the case of `NS(=O)(=O)c1ccc(CCNC(=O)C2CCN(S(=O)(=O)c3c(Cl)cccc3Cl)CC2)cc1`, the cell number change is reported as 8.24% and the AC50 [1] is reported as 7.31 µM [rising, partial curve].
For `Cc1ccc(C(=O)Nc2nccc(C)n2)cc1`, the cell number change was 1.47% and the AC50 [1] was 0.651 µM [rising, full curve, poor fit].
For `CCn1c(=O)cc(SCC(=O)Nc2cccc(SC)c2)c2ccccc21`, the AC50 [2] was 0.082 µM [rising, partial curve, poor fit] and the AC50 [1] was 0.00411 µM [rising, full curve, poor fit].
For `Cc1ccc([N+](=O)[O-])cc1S(=O)(=O)N1CCCCC1C(=O)O` (centres undefined), the cell number change was -30.5%, the AC50 [2] was 18.4 µM [falling, partial curve] and the AC50 [1] was 29.1 µM [falling, single point].
